# Measured values as given in the supplement of paper PMC4604168 (melanoma cell lines).
# The list shows a part of the results. Repeats are few or missing, and single values can be far off.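 Imaging used 1,536-well plates; nuclei positive for cleaved PARP by antibody were divided by total DNA-stained nuclei to yield the apoptosis fraction. Doses for screening kept most cells viable, and cell lines differ markedly in resting and induced cleaved-PARP levels.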
# Tested on: C32
# Test: cleaved PARP positive nuclei fraction relative to DMSO control; melanoma cells; higher = more apoptosis
# Conditions: library dose: low library concentration; 72 h
row,Structure (SMILES),cleaved PARP positive nuclei fraction [%]
1,"Nc1ccn([C@@H]2O[C@H](CO)[C@@H](O)C2(F)F)c(=O)n1 [gemcitabine] + O=S(=O)(c1ccccc1)N(CC(F)(F)F)c1ccc(C(O)(C(F)(F)F)C(F)(F)F)cc1 [T0901317] (first compound 0.0004 µM, partner dose 1.4 µM)",271
2,"Nc1ncn([C@H]2C[C@H](O)[C@@H](CO)O2)c(=O)n1 [decitabine] + O=C(Nc1ccccc1)c1cc([N+](=O)[O-])ccc1Cl [GW9662] (first compound 0.1 µM, partner dose 2 µM)",81.6
3,"Nc1nc(F)nc2c1ncn2[C@@H]1O[C@H](CO)[C@@H](O)[C@@H]1O [fludarabine] + Cn1cc(/C=C2\C(=O)Nc3cccnc32)c2ccccc21 [GW441756] (first compound 0.2 µM, partner dose 0.4 µM)",152
4,"Nc1ccn([C@@H]2O[C@H](CO)[C@@H](O)C2(F)F)c(=O)n1 [gemcitabine] + CCN(CC)CCCCNc1ncc2cc(-c3cc(OC)cc(OC)c3)c(NC(=O)NC(C)(C)C)nc2n1 [PD173074] (first compound 0.0004 µM, partner dose 0.1 µM)",79.9
5,"CCCS(=O)(=O)Nc1ccc(F)c(C(=O)c2c[nH]c3ncc(Cl)cc23)c1F + COc1ccc(COc2ccc(Cc3cnc(N)nc3N)cc2OC)cc1 [GW2580] (first compound 0.08 µM, partner dose 1 µM)",91.3
6,"Nc1ccn([C@@H]2O[C@H](CO)[C@@H](O)C2(F)F)c(=O)n1 [gemcitabine] + CCc1ccc(CCOc2ccc(CC3SC(=O)NC3=O)cc2)nc1 [pioglitazone] (first compound 0.0004 µM, partner dose 2 µM)",558
7,"Nc1ncn([C@H]2C[C@H](O)[C@@H](CO)O2)c(=O)n1 [decitabine] + Oc1cc(-c2nc(-c3ccccc3)[nH]c2-c2ccncc2)ccc1Cl [L779450] (first compound 0.1 µM, partner dose 0.2 µM)",95.3
8,"CNC(=O)c1cc(Oc2ccc(NC(=O)Nc3ccc(Cl)c(C(F)(F)F)c3)cc2)ccn1 [sorafenib] + Cc1cc([N+](=O)[O-])ccc1NS(=O)(=O)c1cc(Cl)ccc1Cl [FH535] (first compound 0.4 µM, partner dose 1 µM)",136
9,"O=C(O)c1ccc2c(c1)nc(Nc1cccc(Cl)c1)c1ccncc12 + N#Cc1c(O)c2c(-c3ccc(-c4ccccc4O)cc3)csc2[nH]c1=O [A769662] (first compound 0.4 µM, partner dose 2 µM)",48.7
10,"Nc1ccn([C@@H]2O[C@H](CO)[C@@H](O)C2(F)F)c(=O)n1 [gemcitabine] + COc1ccc(COc2ccc(Cc3cnc(N)nc3N)cc2OC)cc1 [GW2580] (first compound 0.0004 µM, partner dose 1 µM)",278
11,"Nc1ncn([C@H]2C[C@H](O)[C@@H](CO)O2)c(=O)n1 [decitabine] + O=C1NC(=O)/C(=C/c2ccc(-c3ccc(F)cc3O)o2)S1 [AS252424] (first compound 0.1 µM, partner dose 1 µM)",79.8
12,"CCCS(=O)(=O)Nc1ccc(F)c(C(=O)c2c[nH]c3ncc(Cl)cc23)c1F + Cn1cc(/C=C2\C(=O)Nc3cccnc32)c2ccccc21 [GW441756] (first compound 0.08 µM, partner dose 0.4 µM)",99.5
13,"Cc1cc(Nc2cc(N3CCN(C)CC3)nc(/C=C/c3ccccc3)n2)n[nH]1 + O=c1cc(-c2cccc3c2Sc2ccccc2S3)oc(N2CCOCC2)c1 [KU55933] (first compound 0.04 µM, partner dose 1 µM)",171
14,"Cn1c(=O)n(-c2ccc(C(C)(C)C#N)cc2)c2c3cc(-c4cnc5ccccc5c4)ccc3ncc21 + COc1cc2ncnc(Nc3ccc(Oc4ccccc4)cc3)c2cc1OC [SrcI1] (first compound 0.004 µM, partner dose 2 µM)",185
15,"Cc1cc(Nc2cc(N3CCN(C)CC3)nc(/C=C/c3ccccc3)n2)n[nH]1 + O=S(=O)(c1ccccc1)N(CC(F)(F)F)c1ccc(C(O)(C(F)(F)F)C(F)(F)F)cc1 [T0901317] (first compound 0.04 µM, partner dose 1.4 µM)",86.5
16,"CCCS(=O)(=O)Nc1ccc(F)c(C(=O)c2c[nH]c3ncc(Cl)cc23)c1F + O=C1NC(=O)/C(=C/c2ccc(-c3ccc(F)cc3O)o2)S1 [AS252424] (first compound 0.08 µM, partner dose 1 µM)",106

# A few values from the list.
# cleaved PARP positive nuclei fraction [%] with CCCS(=O)(=O)Nc1ccc(F)c(C(=O)c2c[nH]c3ncc(Cl)cc23)c1F + O=C1NC(=O)/C(=C/c2ccc(-c3ccc(F)cc3O)o2)S1 [AS252424] (first compound 0.08 µM, partner dose 1 µM) is entered as 106
# cleaved PARP positive nuclei fraction [%] with CCCS(=O)(=O)Nc1ccc(F)c(C(=O)c2c[nH]c3ncc(Cl)cc23)c1F + COc1ccc(COc2ccc(Cc3cnc(N)nc3N)cc2OC)cc1 [GW2580] (first compound 0.08 µM, partner dose 1 µM) is entered as 91.3

# The results go on:

row,Structure (SMILES),cleaved PARP positive nuclei fraction [%]
1,"Cn1c(=O)n(-c2ccc(C(C)(C)C#N)cc2)c2c3cc(-c4cnc5ccccc5c4)ccc3ncc21 + CC(C)CCN1c2nc(Nc3cc(F)c(O)c(F)c3)ncc2N(C)C(=O)C1C [BID1870] (first compound 0.004 µM, partner dose 0.2 µM)",72.6
2,"CN1CCN(c2ccc3nc(-c4c(N)c5c(F)cccc5[nH]c4=O)[nH]c3c2)CC1 [Dovitinib] + Oc1cc(-c2nc(-c3ccccc3)[nH]c2-c2ccncc2)ccc1Cl [L779450] (first compound 0.1 µM, partner dose 0.2 µM)",169
3,"Nc1nc(F)nc2c1ncn2[C@@H]1O[C@H](CO)[C@@H](O)[C@@H]1O [fludarabine] + COc1cc(N2CCC(N3CCN(C)CC3)CC2)ccc1Nc1ncc(Cl)c(Nc2ccccc2S(=O)(=O)C(C)C)n1 [NVP-TAE684] (first compound 0.2 µM, partner dose 0.08 µM)",93.9
4,"Nc1ncn([C@H]2C[C@H](O)[C@@H](CO)O2)c(=O)n1 [decitabine] + COc1ccc(-c2ccc3c(N4CCOCC4)nc(N4C[C@@H](C)O[C@@H](C)C4)nc3n2)cc1CO [KU0063794] (first compound 0.1 µM, partner dose 0.02 µM)",39.4
5,"CCCS(=O)(=O)Nc1ccc(F)c(C(=O)c2c[nH]c3ncc(Cl)cc23)c1F + Oc1cc(-c2nc(-c3ccccc3)[nH]c2-c2ccncc2)ccc1Cl [L779450] (first compound 0.08 µM, partner dose 0.2 µM)",71.9
6,"C=C(c1ccc(C(=O)O)cc1)c1cc2c(cc1C)C(C)(C)CCC2(C)C [Bexarotene] + CCCCCCCCCCCC1=C(O)C(=O)C=C(O)C1=O [Embelin] (first compound 2 µM, partner dose 1.2 µM)",66
7,"O=C(O)c1ccc2c(c1)nc(Nc1cccc(Cl)c1)c1ccncc12 + Oc1nc(-c2ccc(C(F)(F)F)cc2)nc2c1CSCC2 [XAV939] (first compound 0.4 µM, partner dose 2 µM)",50.4
8,"C=C(c1ccc(C(=O)O)cc1)c1cc2c(cc1C)C(C)(C)CCC2(C)C [Bexarotene] + COC(=O)c1sccc1S(=O)(=O)Nc1ccc(Nc2ccccc2)cc1OC [GSK0660] (first compound 2 µM, partner dose 1 µM)",110
9,"Nc1nc(F)nc2c1ncn2[C@@H]1O[C@H](CO)[C@@H](O)[C@@H]1O [fludarabine] + COc1ccc2c(c1)CCC1C2CCC2(C)C(NCCCCCCN3C(=O)C=CC3=O)CCC12 [U73122] (first compound 0.2 µM, partner dose 0.4 µM)",147
10,"O=C(O)[C@@H]1[O][Sb](=[O])([O][Sb]2(=[O])[O][C@H]([C@H](O)CO)[C@H](O)[C@H](C(=O)O)[O]2)[O][C@H]([C@H](O)CO)[C@@H]1O (some centres not stated) [stibogluconate] + O=C(O)C(=O)Nc1sc2c(c1C(=O)O)CCNC2 [TCS401] (first compound 2 µM, partner dose 1.66667 µM)",73.6
11,"C=C(c1ccc(C(=O)O)cc1)c1cc2c(cc1C)C(C)(C)CCC2(C)C [Bexarotene] + Cc1cc([N+](=O)[O-])ccc1NS(=O)(=O)c1cc(Cl)ccc1Cl [FH535] (first compound 2 µM, partner dose 1 µM)",73.8
12,"C=C(c1ccc(C(=O)O)cc1)c1cc2c(cc1C)C(C)(C)CCC2(C)C [Bexarotene] + COc1ccc(COc2ccc(Cc3cnc(N)nc3N)cc2OC)cc1 [GW2580] (first compound 2 µM, partner dose 1 µM)",191
13,"Nc1nc(F)nc2c1ncn2[C@@H]1O[C@H](CO)[C@@H](O)[C@@H]1O [fludarabine] + O=C(Nc1ccccc1)c1cc([N+](=O)[O-])ccc1Cl [GW9662] (first compound 0.2 µM, partner dose 2 µM)",381
14,"CC(C)C[C@H](NC(=O)[C@H](Cc1ccccc1)NC(=O)c1cnccn1)B(O)O [Bortezomib] + COC(=O)c1sccc1S(=O)(=O)Nc1ccc(Nc2ccccc2)cc1OC [GSK0660] (first compound 0.001 µM, partner dose 1 µM)",130
15,"CN1CCN(c2ccc3nc(-c4c(N)c5c(F)cccc5[nH]c4=O)[nH]c3c2)CC1 [Dovitinib] + COc1ccc(COc2ccc(Cc3cnc(N)nc3N)cc2OC)cc1 [GW2580] (first compound 0.1 µM, partner dose 1 µM)",158
16,"Cn1c(=O)n(-c2ccc(C(C)(C)C#N)cc2)c2c3cc(-c4cnc5ccccc5c4)ccc3ncc21 + Cc1cc([N+](=O)[O-])ccc1NS(=O)(=O)c1cc(Cl)ccc1Cl [FH535] (first compound 0.004 µM, partner dose 1 µM)",109
